Measured values published in the supplement of paper PMC8551327.
Counter-ions that a name gives are not always drawn. The list shows a part of the results. Rule as the data show it: active = 1.25 or more and inactive = the rest. Single values are uncertain, as repeats are few or missing.

What follows are compounds tested on Kcc2-LUC knock-in mouse primary cortical neurons (Kcc2 promoter reporter) (assay: Kcc2 promoter-driven luciferase activity relative to vehicle control (fold of vehicle (ratio)); higher = stronger Kcc2 promoter activation (Kcc2 expression enhancer)). Conditions: 100 nM; 48 h.

Row | SMILES | Kcc2 promoter-driven luciferase activity
1 | O=C(O)c1ccc(N[C@H](c2ccccc2)c2ccc3cccnc3c2O)cc1 | inactive: 1
2 | c1coc(CNc2ncnc3[nH]ncc23)c1 [N-(Furan-2-ylmethyl)-1H-pyrazolo[3,4-d]pyrimidin-4-amine] | inactive: 0.84
3 | Cc1c(Cl)cccc1NC(=O)/C=C/c1ccccc1 [3'-Chloro-2'-methylcinnamanilide] | inactive: 1.17
4 | COc1ccc2nc3cc([N+](=O)[O-])ccc3c(NNc3ccccc3)c2c1 [1-(2-Methoxy-6-nitroacridin-9-yl)-2-phenylhydrazine] | inactive: 0.92
5 | N#CC(=S)Nc1ccc(F)cc1 [1-Cyano-N-(4-fluorophenyl)methanethioamide] | active: 1.26
6 | CC(C)c1cccc(O)c(=O)c1 [Beta-Thujaplicin] | inactive: 1.16
7 | O=[N+]([O-])c1cc(-c2nc(=S)[nH][nH]2)ccc1O | active: 6.14
8 | COc1ccc2c(NCCCCCCNc3c4ccccc4nc4cc(OC)ccc34)c3ccccc3nc2c1 [N,N'-bis(3-methoxyacridin-9-yl)hexane-1,6-diamin] | inactive: 1.02
9 | Cc1cc(NCCCCCCCNc2cc(C)nc3cc(N)ccc23)c2ccc(N)cc2n1 | inactive: 1
10 | O=[N+]([O-])c1ccc(-c2cn(-c3ccc(Cl)cc3)cn2)cc1 [1-(4-Chlorophenyl)-4-(4-nitrophenyl)imidazole] | inactive: 1.04
11 | Nc1nc(-c2cccs2)cs1 [4-(Thiophen-2-yl)thiazol-2-amine] | inactive: 1.07
12 | O=C1C(=Cc2ccccc2)CN(C(=O)/C=C/c2ccccc2)C/C1=C\c1ccccc1 (stereo in doubt) | inactive: 1.06
13 | Oc1ccc(-c2nc3ccccc3s2)cc1 [4-(1,3-Benzothiazol-2-yl)phenol] | inactive: 0.94
14 | COc1ccc2ccccc2c1C1OC(=O)c2ccccc21 (stereo unspecified) [3-(2-Methoxynaphthalen-1-yl)-3H-2-benzofuran-1-one] | inactive: 0.79
15 | CCCCCCC1CC(=O)C1(Cl)Cl (stereo unspecified) [2,2-Dichloro-3-hexylcyclobutanone] | inactive: 1.13
16 | COc1ccc2[nH]c3c(C)c4ccncc4c(C)c3c2c1 [9-methoxyellipticine] | inactive: 1.13

Row | SMILES | Kcc2 promoter-driven luciferase activity
17 | CC1=C(/C=C/C(C)=C/C=C/C(C)=C/C=C/C=C(C)/C=C/C=C(C)/C=C/C2=C(C)CCCC2(C)C)C(C)(C)CCC1 [Beta-Carotene] | inactive: 0.953
18 | Nc1nc2c(ncn2[C@@H]2O[C@H](CO)[C@@H](O)[C@H]2O)c(=O)[nH]1 [guanosine, dihydrate] | active: 1.39
19 | CCc1cccc(CC)c1NC(=O)C(C#N)C1=C(Cl)C(=O)c2ccccc2C1=O (stereo unspecified) | inactive: 0.01
20 | CCOC(C)C(/C=N/NC(N)=S)=N\NC(N)=S (stereo unspecified) | inactive: 0.37
21 | O=[N+]([O-])c1cccc2c(N=Nc3ccc4ccccc4c3O)c(O)cc(S(=O)(=O)O)c12 | inactive: 0.79
22 | CC(/C=C/C(O)=C1/C(=O)CNC1=O)=C\[C@@H](C)[C@H]1O[C@@]2(C)O[C@H](C(=O)[C@H]3O[C@]32C)[C@@H]1C [Tirandamycin A] | inactive: 0.99
23 | Cc1[nH]c(=O)[nH]c(=O)c1/C=C/C(=O)NC(CO)CC(C)C (stereo unspecified) | inactive: 1.03
24 | COC(=O)c1cc(-c2c[nH]cc2C(=O)OCc2ccccc2)cn1S(=O)(=O)c1ccc(C)cc1 | inactive: 0.48
25 | NC(N)=N/N=C(\c1ccc(Cl)cc1)C1CC1 | inactive: 0.39
26 | NC(=S)N/N=C/c1ncccc1O [[(E)-(3-Hydroxy-2-pyridyl)methyleneamino]thiourea] | inactive: 1.14
27 | O=NN(CCCl)C(=O)NCc1ccc[n+]([O-])c1 [1-(2-Chloroethyl)-1-nitroso-3-(3-pyridylmethyl)urea N-oxide] | inactive: 0.34
28 | COc1cc(/C=C/C(=O)CC(=O)/C=C/c2ccc(O)c(OC)c2)ccc1O [Curcumin] | inactive: 1.09
29 | O=c1ccc2nc3ccc(O)cc3oc-2c1 [7-Hydroxy-3H-phenoxazin-3-one] | inactive: 1.21
30 | COc1ccc(CCN(C)CCCC(C#N)(c2ccc(OC)c(OC)c2)C(C)C)cc1OC (stereo unspecified) [Verapamil hydrochloride] | active: 1.25
31 | CN/N=C(\C)C(CN1CCCCC1)C(C1=C(O)c2ccccc2OC1)c1ccccc1 (stereo unspecified) | inactive: 1.2

An excerpt of these results, as tab-separated lines.
Row	SMILES	Kcc2 promoter-driven luciferase activity
25	NC(N)=N/N=C(\c1ccc(Cl)cc1)C1CC1	inactive: 0.39
30	COc1ccc(CCN(C)CCCC(C#N)(c2ccc(OC)c(OC)c2)C(C)C)cc1OC (stereo unspecified) [Verapamil hydrochloride]	active: 1.25
